# The list shows a part of the results.
# Compound: Cc1cc(ccc1-c1ccccc1)C(=O)N1CCCN(CC1)C(=O)CCl [compound 10]
# Assay: probe-labelled cysteine peptide fold change vs DMSO (competition) (log2 fold change); higher = less target engagement (more negative = stronger competition)
# Details: THP-1, incubation time: 4 h
# 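Further: competitive profiling in live THP-1 cells: cysteine peptides tagged with an iodoacetamide desthiobiotin (IA-DTB) probe, intensity after compound treatment relative to DMSO-treated cells.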
Target,probe-labelled cysteine peptide fold change (10 µM),probe-labelled cysteine peptide fold change (50 µM)
DHX29_Q7Z478_659_NSLCGYQIR (UniProt Q7Z478),-0.0082,-0.081
DHX15_O43143_644_QNHESVQWCYDNFINYR (UniProt O43143),0.24,0.295
DIAPH2_O60879_862_INFLCK (UniProt O60879),0.119,0.0816
DNMT1_P26358_1476+1478_GVCSCVEAGK (UniProt P26358),-1.56,< -5
DIAPH2_O60879_283_ILSAICIVGEENILDK (UniProt O60879),0.315,0.034
DLGAP5_Q15398_129_YRPDMPCFLLSNQNAVK (UniProt Q15398),-0.0877,-1.31
DHX37_Q8IY37_616_LCVVATNVAETSLTIPGIK (UniProt Q8IY37),0.141,0.0852
DNM1L_O00429_505_HPDFADACGLMNNNIEEQR (UniProt O00429),-0.477,-0.453
DNAJC7_Q99615_175_ALEFAPACHR (UniProt Q99615),-0.118,-0.577
DNAJC2_Q99543_276_TLVDNAYSCDPR (UniProt Q99543),0.219,-0.0445
DIAPH3_Q9NSV4_1158_EACNVESNR (UniProt Q9NSV4),-0.103,-0.438
DIS3_Q9Y2L1_549_IDMVPELLSSNLCSLK (UniProt Q9Y2L1),0.389,0.0881
DHX35_Q9H5Z1_609_CIVSGFFANAAR (UniProt Q9H5Z1),0.114,0.0349
DNAJC21_Q5F1R6_487_VPAEPQTMSVLISCTTCHSEFPSR (UniProt Q5F1R6),-0.257,-0.199
DICER1_Q9UPY3_801_CFGILTAKPIPQIPHFPVYTR (UniProt Q9UPY3),0.041,0.0559
DHX36_Q9H2U1_284_AESCGSGNSTGYQIR (UniProt Q9H2U1),-0.0931,-0.0293
DHX15_O43143_307_FQIYFDNCPLLTIPGR (UniProt O43143),0.0607,0.479

# Individual results from the entries so far:
# For probe-labelled cysteine peptide fold change (10 µM), DLGAP5_Q15398_129_YRPDMPCFLLSNQNAVK (UniProt Q15398) reads -0.0877
# For probe-labelled cysteine peptide fold change (50 µM), DHX15_O43143_644_QNHESVQWCYDNFINYR (UniProt O43143) reads 0.295
